Reference: publication PMC7819943, “Rice protein-binding microarrays: a tool to detect cis-acting elements near promoter regions in rice”
The list shows a part of the results.

molecular target: T1, OsSMF1 (Oryza sativa, UniProt Q6ZLB0 1-436); assay: protein-binding microarray (RPBM); PBS, 2% BSA, 51.3 ng/ul salmon testes DNA, 50 uM zinc acetate, 200 nM TF, 25 C, 1 h; high values mean tight binding; conditions: protein: recombinant; tags: N-terminal polyhistidine and DsRed monomer fusion (pET32a); chain copies: 2; label: CyDye5-dUTP incorporated in the synthesized complementary strand; 3' TTTTT single-stranded linker to array surface; dsDNA, one strand shown
T1 sequence: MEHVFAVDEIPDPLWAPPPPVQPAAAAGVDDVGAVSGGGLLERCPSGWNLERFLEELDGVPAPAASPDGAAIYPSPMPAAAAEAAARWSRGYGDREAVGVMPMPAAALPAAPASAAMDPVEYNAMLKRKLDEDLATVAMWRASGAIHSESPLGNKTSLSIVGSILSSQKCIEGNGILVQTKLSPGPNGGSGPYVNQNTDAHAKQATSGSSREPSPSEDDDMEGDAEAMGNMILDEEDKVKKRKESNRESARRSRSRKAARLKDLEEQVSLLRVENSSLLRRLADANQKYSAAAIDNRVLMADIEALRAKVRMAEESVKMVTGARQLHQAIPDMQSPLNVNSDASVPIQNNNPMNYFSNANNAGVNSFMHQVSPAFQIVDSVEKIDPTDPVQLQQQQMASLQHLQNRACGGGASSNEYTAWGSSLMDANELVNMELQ
Summary of the method: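 The binding signal is fluorescence intensity per array feature (arbitrary units). Readings came from an Axon 4000B scanner after a washed, 2% BSA-blocked, double-stranded custom Agilent array had been incubated for 1 h at 25 °C with 200 nM protein and 50 µM zinc acetate. The protein was a Ni–NTA-purified transcription factor fused N-terminally to polyhistidine and DsRed, expressed in E. coli BL21-CodonPlus.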

Sequence	binding signal
ACCATTGCGGGTGCCCTTAGATCATCAGGTGTCACGGCCACGGAGTCACCTAGTGCAG	3700 fluorescence intensity (a.u.)
AGATTCCAAGAAGAATGAATAGAAAACAGTGGTAGATCGACGGAGTCACCTAGTGCAG	26600 fluorescence intensity (a.u.)
AATGGGGCTATAGGTAATTATGCTTAGAAGTCCGGTTCATCGGAGTCACCTAGTGCAG	5130 fluorescence intensity (a.u.)
GACGCGCTCGACGCCGCGGCGCGCGCCTCAGTTTGAGCTGCGGAGTCACCTAGTGCAG	17300 fluorescence intensity (a.u.)
AGGAGGCGGGGCGGGGCGGCGGCGGCGGCGGCGGCGCCCGCGGAGTCACCTAGTGCAG	4520 fluorescence intensity (a.u.)
CCATAATCACACTTCAATAGTAGTACTACCACAATTGCATCGGAGTCACCTAGTGCAG	45100 fluorescence intensity (a.u.)
CTGCAGCTTCCTACCTCCATCCATCCATTCATCTTCTTCTCGGAGTCACCTAGTGCAG	3680 fluorescence intensity (a.u.)
CTCGGTAATATTTGGGACGGAGTCACGGAGGGAGTTGTAACGGAGTCACCTAGTGCAG	37000 fluorescence intensity (a.u.)
GGTACCACGCTTTGATGTGCCTTATGTGGCACTTTATTTTCGGAGTCACCTAGTGCAG	5580 fluorescence intensity (a.u.)
GCATCGCAACAACAAGATGATCCATCCACAAGACCAAAGTCGGAGTCACCTAGTGCAG	20200 fluorescence intensity (a.u.)
GTGAGAATTTCTAGGCCATGAGAGCGAACGTGGAGGCTCTCGGAGTCACCTAGTGCAG	4530 fluorescence intensity (a.u.)
TACCGCGTAGGCAATCATGCCACGCCTGCACATTGAACCGCGGAGTCACCTAGTGCAG	5260 fluorescence intensity (a.u.)
ATTGTACACAACAAATTGAAATTTTCAATTCAACTTTTAACGGAGTCACCTAGTGCAG	43200 fluorescence intensity (a.u.)
TTGTACAGCAGCGTGCTTCCATATGAGGAAATCCACTTCTCGGAGTCACCTAGTGCAG	44200 fluorescence intensity (a.u.)
ATTCATTGTACTGAAAGACTCATATTAGATTGTAACATTTCGGAGTCACCTAGTGCAG	3340 fluorescence intensity (a.u.)
ATGGAACTCTCGCCACGTGGCATCTCAGTTCGTTGCACCCCGGAGTCACCTAGTGCAG	31700 fluorescence intensity (a.u.)
GGCCGTGCTCGTCACGCTCTGCGTCGCCGGCGCCTACTTCCGGAGTCACCTAGTGCAG	3410 fluorescence intensity (a.u.)
GTCCATCCGCGCGCAAGAGGTCTCCACCGCACGATTGAGTCGGAGTCACCTAGTGCAG	3190 fluorescence intensity (a.u.)
ATATATATATATGCAGCATGTACACGTCAAACACTGAAACCGGAGTCACCTAGTGCAG	6320 fluorescence intensity (a.u.)
GCAGGATGATACTGATGACGATGCACTACCAATGCAACGTCGGAGTCACCTAGTGCAG	6730 fluorescence intensity (a.u.)
GTGAAAGTACAATTAGGTTAACACTAACGTGGCTTGACCCCGGAGTCACCTAGTGCAG	6170 fluorescence intensity (a.u.)

Sequence	binding signal
GCCAATCCAGTCACTTACCTAACACAAAAGTTTCAAGCCACGGAGTCACCTAGTGCAG	8020 fluorescence intensity (a.u.)
GCAAAGCTCTCAGTTGATGCCGTCTTACGTCTTTTCCATCCGGAGTCACCTAGTGCAG	3320 fluorescence intensity (a.u.)
ATTTCGATGGGTGGGCTTGGGCTGACAAACAATCACGCTCCGGAGTCACCTAGTGCAG	3800 fluorescence intensity (a.u.)
CCTGTGCTGACCTCCTCTACCGTGATGGCCTCCTCGACCTCGGAGTCACCTAGTGCAG	3420 fluorescence intensity (a.u.)
AAGCAACTAATCCACCTTCACCAACCCACTCCCGTCATCGCGGAGTCACCTAGTGCAG	31200 fluorescence intensity (a.u.)
TATAAAACTTTGTAGTTTATCAGTTTTCCATTTAAAATCACGGAGTCACCTAGTGCAG	27100 fluorescence intensity (a.u.)
ATTGCTATGTAGGACTTTTAGCTTATGTGGCACTATATTACGGAGTCACCTAGTGCAG	5030 fluorescence intensity (a.u.)
GCCTCTCCCCTGTGATCCAACCAGCATATGACCTGGATCACGGAGTCACCTAGTGCAG	3900 fluorescence intensity (a.u.)
CGTTTACCACTCATATATCAATGATACGTGGATTCTCATACGGAGTCACCTAGTGCAG	4370 fluorescence intensity (a.u.)
CCCCACCCGTCAGCCAAACCCATCCCACCACGAGGAGTGACGGAGTCACCTAGTGCAG	18600 fluorescence intensity (a.u.)
GTTCATTTTAGGTGTGTTTGGTTGACACAGCTGCTTGCGGCGGAGTCACCTAGTGCAG	4530 fluorescence intensity (a.u.)
TTGTACCAGCTAACTCATCACCACGCAGGCCAGAGTAGTACGGAGTCACCTAGTGCAG	45900 fluorescence intensity (a.u.)
CATAGAGCTAACAGGATCTCTGGCCCACGTGTCAGATTCTCGGAGTCACCTAGTGCAG	13500 fluorescence intensity (a.u.)
GGCAAACGTGAAGGCGTACGTGTCGTCGGCCGCGTGCCACCGGAGTCACCTAGTGCAG	4340 fluorescence intensity (a.u.)
TTAACAAAGCGAGGGGTGTACGTATTTTGTTCACTCTTTGCGGAGTCACCTAGTGCAG	3180 fluorescence intensity (a.u.)
ACCAGGTGGCTACAGCTGGCTAAATACCCAGTCACTACCACGGAGTCACCTAGTGCAG	3680 fluorescence intensity (a.u.)
CGTAGTACATGTTTATACATTATCCATTTGGAAAGGCTTTCGGAGTCACCTAGTGCAG	3280 fluorescence intensity (a.u.)
TGTCTCGTGGTAATCACGCGGTTACTGTGGTAACCACCTTCGGAGTCACCTAGTGCAG	3140 fluorescence intensity (a.u.)
CCGTGCCAAAGCATACTCTGTCACCCCAACGGCTTTCTCCCGGAGTCACCTAGTGCAG	3370 fluorescence intensity (a.u.)
GCGCCGCCGCGAGATCATCAAGGTGTCGACGCCGCATTCCCGGAGTCACCTAGTGCAG	3500 fluorescence intensity (a.u.)
ATTGATCTTGTTAGTGAGCCTGAAGTATCTTCCTTGGTTGCGGAGTCACCTAGTGCAG	28700 fluorescence intensity (a.u.)

Sequence	binding signal
TAAGTCACATGCAAATGATGGATGTCATGGTATTTAGGTGCGGAGTCACCTAGTGCAG	3260 fluorescence intensity (a.u.)
TGTTGAGTTCTTTAACCCACTGGCAAATTCTTAATTGTCACGGAGTCACCTAGTGCAG	21000 fluorescence intensity (a.u.)
GGGGCTATGTTATGAAGCTTGTGTCATTAGCATAGTCCTACGGAGTCACCTAGTGCAG	3710 fluorescence intensity (a.u.)
TCAACCGGGAACTCCCTGCGTAGGAGTACGTCAGTGGCGCCGGAGTCACCTAGTGCAG	3230 fluorescence intensity (a.u.)
AACTCATGGATGACTGTCTATATACCATCCATATATGTTTCGGAGTCACCTAGTGCAG	3340 fluorescence intensity (a.u.)
ACCAAGACGCGGCCCCACTCGTCAGTGACAGAAGAGGCTGCGGAGTCACCTAGTGCAG	3580 fluorescence intensity (a.u.)
CTGGGAATGGCATGCCACGGCTGAGGAAACCGTGCCGACCCGGAGTCACCTAGTGCAG	4510 fluorescence intensity (a.u.)
TCGCTACACCACACGCCACGCCTCTCTCTCCCCTAGCTCGCGGAGTCACCTAGTGCAG	3230 fluorescence intensity (a.u.)
CCTTAAGATTCCTTATGTGGCTTCATGCGACGTGCATGTGCGGAGTCACCTAGTGCAG	4520 fluorescence intensity (a.u.)
GCGCCCGAAGAACCTTGTCGTCGTCACCCACCCGCTCCACCGGAGTCACCTAGTGCAG	4210 fluorescence intensity (a.u.)
CGCGATGCCATGTCCTGCCGACGGCCCCGCATACTCGACACGGAGTCACCTAGTGCAG	3710 fluorescence intensity (a.u.)
CATCACCACCACCATCTCCTCTCGCCTCCTCCTCCGCCGCCGGAGTCACCTAGTGCAG	14700 fluorescence intensity (a.u.)
AACGACCGGTCCGGGTGACACATGCGTTTTGCCCCGGTCACGGAGTCACCTAGTGCAG	4980 fluorescence intensity (a.u.)
GAGAGCTCCCTTTTCGTACCACCTCGCCGCGTCGGCTGCTCGGAGTCACCTAGTGCAG	4870 fluorescence intensity (a.u.)
AACACAAACTCGTTCGCACACGTGGACGCGCCCTCCTGAGCGGAGTCACCTAGTGCAG	8640 fluorescence intensity (a.u.)
CTTGTCTAGTCCAGGACAACTGGGATGATTGAGCACCAGTCGGAGTCACCTAGTGCAG	3170 fluorescence intensity (a.u.)
TAAGTAGAATCGAATACCACCTCAGCCTGATTAATCGGAGCGGAGTCACCTAGTGCAG	3340 fluorescence intensity (a.u.)
GTGAAATGCGCTTGACATGATCGCCCCACGCACACAAACACGGAGTCACCTAGTGCAG	3280 fluorescence intensity (a.u.)
AGTTCAGGGATGTTTGACACCTTTGTCTGAAAGCCAATATCGGAGTCACCTAGTGCAG	3140 fluorescence intensity (a.u.)
ACCCCGTCCCACATTCGGTTCCTCCCTGCGATTGGATCTGCGGAGTCACCTAGTGCAG	3200 fluorescence intensity (a.u.)
GACTGGAGACACGTAATCCAGAAATCCGCCTCCCTAGTAGCGGAGTCACCTAGTGCAG	6980 fluorescence intensity (a.u.)

Sequence	binding signal
GAAAGAGATGATGACGTGGCACCCTGATATGTGGGTCCTACGGAGTCACCTAGTGCAG	23200 fluorescence intensity (a.u.)
TGCATGTACGATACTGGAGCTGATCCTCGCCATCATATCCCGGAGTCACCTAGTGCAG	3160 fluorescence intensity (a.u.)
TTGATACCTAAGCTGAGTCAGCATGTGGGCCCCACCTGCACGGAGTCACCTAGTGCAG	13300 fluorescence intensity (a.u.)
CAATGGCCGTAGCGTCAAGCCACGTAACGATAACACGCAACGGAGTCACCTAGTGCAG	9020 fluorescence intensity (a.u.)
CCAGTCCAATCGATTCCAACTCTCTCTAGTGACCACTCGACGGAGTCACCTAGTGCAG	3150 fluorescence intensity (a.u.)
ACCGCCGCGGACGCGGATCCTCATGTCGATGTCCTTGAAGCGGAGTCACCTAGTGCAG	36800 fluorescence intensity (a.u.)
GCTCGCCTGACAAAGTCGGCCACGCAAGCTGAAACACGGACGGAGTCACCTAGTGCAG	6760 fluorescence intensity (a.u.)
CCTGAAGCGAACGCGCGGCGCGCGCGCGCGCGTGGCGGCGCGGAGTCACCTAGTGCAG	4050 fluorescence intensity (a.u.)
GTACTAGTATTTGGCTATAAATTTCTGTGATTACTCAGTGCGGAGTCACCTAGTGCAG	3280 fluorescence intensity (a.u.)
TAGACTAAAATAAACATTCAAATAGCGGGACGTGACACGTCGGAGTCACCTAGTGCAG	3820 fluorescence intensity (a.u.)
GAAGGAGAGGAGGAGAGGAGAGGAGAGAGGGAGGCAGCAGCGGAGTCACCTAGTGCAG	3280 fluorescence intensity (a.u.)
CCTGCGCGCTCCGCCACGTGCGCCTCTTCTCCCCGCCTCCCGGAGTCACCTAGTGCAG	12100 fluorescence intensity (a.u.)
CTCTTCATCCAGCTCACTGCATAATCACACACTAATTAACCGGAGTCACCTAGTGCAG	3460 fluorescence intensity (a.u.)
AGGATGATGAGATGGAATGATGATAAGTGCCATGAAGCCTCGGAGTCACCTAGTGCAG	3660 fluorescence intensity (a.u.)
CCAATAATGATAAATCCCGTGACGTAGTATACGCCTCTGTCGGAGTCACCTAGTGCAG	4590 fluorescence intensity (a.u.)
ATCATAATATGAAATATGGTAATTACCATAAGAATAAAAGCGGAGTCACCTAGTGCAG	3660 fluorescence intensity (a.u.)
AGGTCGGGGAAAGGATGCCGTTGGCGAGGAGGGTGGCGAGCGGAGTCACCTAGTGCAG	3500 fluorescence intensity (a.u.)
GATTGCACGTATTGTGAACGCTGACTTCATTAATCTTAAGCGGAGTCACCTAGTGCAG	25100 fluorescence intensity (a.u.)
TAAATAAACCAACTTCTGCCACTTCATTCTCTGTGGCATCCGGAGTCACCTAGTGCAG	3950 fluorescence intensity (a.u.)
CCCCGGCGCCAGCAGCGGCCTCCACGTCCCGCTCCCACTCCGGAGTCACCTAGTGCAG	5280 fluorescence intensity (a.u.)
CTCCGAGAATCTCAGCCATTGGATATAACTTGGATGGTCCCGGAGTCACCTAGTGCAG	9520 fluorescence intensity (a.u.)

Already shown: an excerpt of the list.
Sequence	binding signal
GCCTCTCCCCTGTGATCCAACCAGCATATGACCTGGATCACGGAGTCACCTAGTGCAG	3900 fluorescence intensity (a.u.)
CGTTTACCACTCATATATCAATGATACGTGGATTCTCATACGGAGTCACCTAGTGCAG	4370 fluorescence intensity (a.u.)
CCCCACCCGTCAGCCAAACCCATCCCACCACGAGGAGTGACGGAGTCACCTAGTGCAG	18600 fluorescence intensity (a.u.)
GTTCATTTTAGGTGTGTTTGGTTGACACAGCTGCTTGCGGCGGAGTCACCTAGTGCAG	4530 fluorescence intensity (a.u.)
